PubChem BioAssay AID1159584, Peter MacCallum Cancer Centre – 2016
Purpose: 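Knock-downs that harm CDH1-null cells more than parental MCF10A cells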 (primary screen). Cell system: human MCF10A breast epithelial cells, parental and CDH1-null. Reagent: siRNA against human genes. Measurement: 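ATP luminescence (CellTiter-Glo) viability per line relative to mean mock wells over all plates, and the ratio of CDH1-null to parental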. Reading the numbers: CDH1-null / parental viability ratio: higher = CDH1-null cells survive relatively better than parental; CDH1-null viability vs mock: higher = more viable CDH1-null cells; parental viability vs mock: higher = more viable parental cells.
The whole screen tested about 18,000 reagents; below is a random part of them. The record does not give: the amount of reagent, the time to read-out.

gene symbol	CDH1-null / parental viability ratio	CDH1-null viability vs mock (fraction of mock)	parental viability vs mock (fraction of mock)
SRSF1	0.88	0.42	0.48
BPI	1.04	1.12	1.08
POLR1B	0.9	0.54	0.6
CNIH2	0.68	0.45	0.66
RNF182	0.82	0.72	0.88
CORO1B	0.81	0.64	0.79
SETDB1	0.92	0.9	0.98
CA1	1.11	1.04	0.94
PEG3	0.95	0.52	0.55
BICD1	1.01	1.03	1.02
MORF4	1.37	1.19	0.87
SLC17A8	0.89	1.02	1.15
SEL1L	0.74	0.55	0.74
CENPB	1.06	1.21	1.14
ACHE	0.74	0.75	1.02
TNNT1	1.03	0.98	0.95
PEX16	0.49	0.38	0.77
MAL	0.78	0.93	1.2
NGB	0.68	0.45	0.66
TCF25	1.08	0.8	0.74
MFAP1	1.3	0.3	0.23
ZBTB3	1.13	0.94	0.83
FAM124B	0.97	0.83	0.86
NT5DC2	0.92	0.76	0.83
ZNF875	1.22	0.9	0.74
PDE4A	0.85	0.9	1.06
MMP26	1.15	0.86	0.75
BTBD6	0.99	0.94	0.95

No new results follow: an excerpt of the list.
gene symbol	CDH1-null / parental viability ratio	CDH1-null viability vs mock (fraction of mock)	parental viability vs mock (fraction of mock)
CENPB	1.06	1.21	1.14
ACHE	0.74	0.75	1.02
TNNT1	1.03	0.98	0.95
